Assay [1] addresses T1, CXCR2 of mouse DRG neurons (mouse (endogenous in DRG)) (UniProt P35343).
T1 sequence: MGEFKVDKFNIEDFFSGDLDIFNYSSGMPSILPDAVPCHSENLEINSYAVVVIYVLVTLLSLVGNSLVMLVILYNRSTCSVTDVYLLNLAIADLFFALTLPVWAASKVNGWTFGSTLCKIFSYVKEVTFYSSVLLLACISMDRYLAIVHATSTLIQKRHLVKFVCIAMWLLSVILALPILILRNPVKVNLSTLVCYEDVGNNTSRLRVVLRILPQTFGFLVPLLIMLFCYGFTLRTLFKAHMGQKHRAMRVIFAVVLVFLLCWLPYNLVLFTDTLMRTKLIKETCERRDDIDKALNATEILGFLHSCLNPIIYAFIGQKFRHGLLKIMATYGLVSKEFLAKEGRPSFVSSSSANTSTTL
As to the kind of experiment: co-IP; lysate of ipsilateral L3-L5 DRG of control and MSU (gout model) mice; 50 mM Tris, 150 mM NaCl, 1 mM EDTA, 0.2% Triton X-100; precipitated with 1 μg anti-CXCR2 or anti-TRPA1 antibody at 4 °C overnight, Protein A + G magnetic beads; immunoblot. For orientation: In western blotting, separated proteins are transferred to a membrane and probed.

Chains of the proteins cited; added tags and fusions are not shown.
UniProt Q8BLA8: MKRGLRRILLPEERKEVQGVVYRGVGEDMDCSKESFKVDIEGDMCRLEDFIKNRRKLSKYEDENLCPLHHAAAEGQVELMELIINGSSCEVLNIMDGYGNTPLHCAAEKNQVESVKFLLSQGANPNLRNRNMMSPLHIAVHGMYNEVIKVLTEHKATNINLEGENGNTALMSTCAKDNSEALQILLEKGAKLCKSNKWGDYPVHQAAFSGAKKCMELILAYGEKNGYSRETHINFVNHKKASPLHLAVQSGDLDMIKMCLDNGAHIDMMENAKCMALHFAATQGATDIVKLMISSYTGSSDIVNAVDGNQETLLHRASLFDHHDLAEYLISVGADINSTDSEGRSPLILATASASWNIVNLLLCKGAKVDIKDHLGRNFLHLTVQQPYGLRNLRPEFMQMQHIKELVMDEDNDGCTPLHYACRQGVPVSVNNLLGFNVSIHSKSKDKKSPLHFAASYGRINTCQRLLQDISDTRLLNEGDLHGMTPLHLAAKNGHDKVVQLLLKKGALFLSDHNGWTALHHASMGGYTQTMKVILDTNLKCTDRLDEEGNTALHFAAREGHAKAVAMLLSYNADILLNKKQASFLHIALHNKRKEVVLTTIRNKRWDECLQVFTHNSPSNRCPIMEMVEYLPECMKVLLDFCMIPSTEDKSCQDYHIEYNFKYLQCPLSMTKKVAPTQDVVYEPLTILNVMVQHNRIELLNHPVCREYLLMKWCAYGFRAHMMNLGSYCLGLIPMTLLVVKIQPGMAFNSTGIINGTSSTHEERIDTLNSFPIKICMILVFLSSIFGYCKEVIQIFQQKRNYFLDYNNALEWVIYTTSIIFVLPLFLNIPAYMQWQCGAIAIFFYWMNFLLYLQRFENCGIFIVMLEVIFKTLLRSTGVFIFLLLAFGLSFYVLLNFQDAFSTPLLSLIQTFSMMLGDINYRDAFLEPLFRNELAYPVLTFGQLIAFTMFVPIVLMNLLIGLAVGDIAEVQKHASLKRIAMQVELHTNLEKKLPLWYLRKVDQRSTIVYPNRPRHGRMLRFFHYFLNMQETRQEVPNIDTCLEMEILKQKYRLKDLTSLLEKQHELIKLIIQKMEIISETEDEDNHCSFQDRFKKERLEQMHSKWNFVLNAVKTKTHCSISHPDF

In assay [2] the target is TRPA1 of mouse DRG (mouse (endogenous in DRG)) (UniProt Q8BLA8). The assay is described as above.

No constants are given. Whether binding was seen depends on the method and setting. Binding seen in cells or lysates may run through a third protein. Some binding calls cover weakened binding; strength is not graded here.

Consider “TRPA1 of mouse DRG (from UniProt Q8BLA8 1-1125)”, for which, in assay [1], the binding result is on record as “binds”.

B1: CXCR2 of mouse DRG neurons (receptor, UniProt P35343 1-359)
chain: T1 sequence
Turning to B1, the binding entry in assay [2] is listed as “binds”.

The record behind these values is paper PMC11021482.
